Values from PubChem BioAssay AID1259405 (NCATS, 2018)
This is a random part of about 50,000 reagents. Over the whole deposit, about 4,000 (8%) were called active. 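Mouse siRNA library applied to hamster cells; one well for each siRNA.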 Entries without a mark were called inactive. The numbers tell different reagents against one gene apart.

Assay: 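Mouse-designed siRNAs used to find CHO productivity engineering targets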 (primary screen)
System: Chinese hamster CHO-K1 ovary cells with stable secreted eGFP expression
Knock-down reagent: single siRNA against mouse genes, 0.8 pmol siRNA per well (2 µl of 400 nM stock)
Time to read-out: 3 days
Measured: 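Per-well intracellular GFP measured by laser scanning cytometry, plus viability from ATP luminescence, each relative to plate median of non-targeting control wells, in %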
Scale: GFP, % of control: higher = more GFP per well, higher productivity; viability (ATP), % of control: higher = more viable cells (more ATP)
Hit rule: 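Called active when intracellular GFP, relative to negative control, is at or above 120%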

| gene knocked down | siRNA no. | GFP, % of control | viability (ATP), % of control |
| --- | --- | --- | --- |
| Hoxd3 (homeobox D3) | 1 | 125 (active) | 115 |
| Hoxd3 (homeobox D3) | 2 | 136 (active) | 116 |
| Hoxd3 (homeobox D3) | 3 | 77.9 | 91.4 |
| Or6c5c (olfactory receptor family 6 subfamily C member 5C) | 1 | 65.7 | 62.6 |
| Or6c5c (olfactory receptor family 6 subfamily C member 5C) | 2 | 79.4 | 81.7 |
| Or6c5c (olfactory receptor family 6 subfamily C member 5C) | 3 | 118 | 90.5 |
| Ephx2 (epoxide hydrolase 2, cytoplasmic) | 1 | 106 | 112 |
| Ephx2 (epoxide hydrolase 2, cytoplasmic) | 2 | 80.6 | 85.3 |
| Ephx2 (epoxide hydrolase 2, cytoplasmic) | 3 | 67.6 | 67.7 |
| Pde8b (phosphodiesterase 8B) | 1 | 115 | 151 |
| Pde8b (phosphodiesterase 8B) | 2 | 87.7 | 101 |
| Pde8b (phosphodiesterase 8B) | 3 | 67.1 | 74.5 |
| Bcap31 (B cell receptor associated protein 31) | 1 | 93.9 | 78.1 |
| Bcap31 (B cell receptor associated protein 31) | 2 | 68.9 | 73.9 |
| Bcap31 (B cell receptor associated protein 31) | 3 | 98.9 | 75.9 |
| Glod5 (glyoxalase domain containing 5) | 1 | 80.9 | 72.9 |
| Glod5 (glyoxalase domain containing 5) | 2 | 96 | 56.4 |
| Glod5 (glyoxalase domain containing 5) | 3 | 105 | 69.9 |
| Ucn3 (urocortin 3) | 1 | 55.7 | 38 |
| Ucn3 (urocortin 3) | 2 | 65.1 | 76.8 |
| Ucn3 (urocortin 3) | 3 | 0 | 130 |
| Cstf3 (cleavage stimulation factor, 3' pre-RNA, subunit 3) | 1 | 85.6 | 61.2 |
| Cstf3 (cleavage stimulation factor, 3' pre-RNA, subunit 3) | 2 | 62 | 46.8 |
| Cstf3 (cleavage stimulation factor, 3' pre-RNA, subunit 3) | 3 | 105 | 90.2 |
| Whr1 (winged helix repair factor 1) | 1 | 52.7 | 44.5 |
| Whr1 (winged helix repair factor 1) | 2 | 125 (active) | 101 |
| Whr1 (winged helix repair factor 1) | 3 | 136 (active) | 125 |
| Zscan12 (zinc finger and SCAN domain containing 12) | 1 | 71.1 | 34.6 |
| Zscan12 (zinc finger and SCAN domain containing 12) | 2 | 67.1 | 62.5 |
| Setd7 (SET domain containing (lysine methyltransferase) 7) | 1 | 134 (active) | 85.5 |
| Setd7 (SET domain containing (lysine methyltransferase) 7) | 2 | 61 | 83.7 |
| Setd7 (SET domain containing (lysine methyltransferase) 7) | 3 | 58.3 | 67.8 |
| Krt78 (keratin 78) | 1 | 50.5 | 52.1 |
| Krt78 (keratin 78) | 2 | 79.1 | 73.7 |
| Adpgk (ADP-dependent glucokinase) | 1 | 51 | 68.6 |
| Adpgk (ADP-dependent glucokinase) | 2 | 98.5 | 69.9 |
| Adpgk (ADP-dependent glucokinase) | 3 | 108 | 110 |

Reformatted: entries from further up
gene knocked down,siRNA no.,"GFP, % of control","viability (ATP), % of control"
Pde8b (phosphodiesterase 8B),2,87.7,101
Pde8b (phosphodiesterase 8B),3,67.1,74.5
Bcap31 (B cell receptor associated protein 31),1,93.9,78.1
Bcap31 (B cell receptor associated protein 31),2,68.9,73.9
Bcap31 (B cell receptor associated protein 31),3,98.9,75.9
Glod5 (glyoxalase domain containing 5),1,80.9,72.9
Glod5 (glyoxalase domain containing 5),2,96,56.4
Glod5 (glyoxalase domain containing 5),3,105,69.9
Ucn3 (urocortin 3),1,55.7,38
Ucn3 (urocortin 3),2,65.1,76.8
Ucn3 (urocortin 3),3,0,130

Additional records follow.
| gene knocked down | siRNA no. | GFP, % of control | viability (ATP), % of control |
| --- | --- | --- | --- |
| Or51q1 (olfactory receptor family 51 subfamily Q member 1) | 1 | 109 | 59.8 |
| Or51q1 (olfactory receptor family 51 subfamily Q member 1) | 2 | 74.2 | 57.5 |
| Or51q1 (olfactory receptor family 51 subfamily Q member 1) | 3 | 44 | 68.8 |
| Kcnq5 (potassium voltage-gated channel, subfamily Q, member 5) | 1 | 67.9 | 49.2 |
| Kcnq5 (potassium voltage-gated channel, subfamily Q, member 5) | 2 | 98 | 60.8 |
| Kcnq5 (potassium voltage-gated channel, subfamily Q, member 5) | 3 | 93.5 | 90.5 |
| Il36g (interleukin 36G) | 1 | 71.5 | 65.1 |
| Il36g (interleukin 36G) | 2 | 76.4 | 81.8 |
| Il36g (interleukin 36G) | 3 | 102 | 52 |
| Oosp1 (oocyte secreted protein 1) | 1 | 78.4 | 90.3 |
| Oosp1 (oocyte secreted protein 1) | 2 | 118 | 79.2 |
| Oosp1 (oocyte secreted protein 1) | 3 | 68.1 | 68.5 |
| Sin3b (transcriptional regulator, SIN3B (yeast)) | 1 | 64.6 | 70.4 |
| Sin3b (transcriptional regulator, SIN3B (yeast)) | 2 | 96.5 | 70.3 |
| Sin3b (transcriptional regulator, SIN3B (yeast)) | 3 | 59.3 | 44.3 |
| Extl1 (exostosin-like glycosyltransferase 1) | 1 | 57.4 | 52.1 |
| Extl1 (exostosin-like glycosyltransferase 1) | 2 | 204 (active) | 121 |
| Extl1 (exostosin-like glycosyltransferase 1) | 3 | 98.4 | 105 |
| Ripk2 (receptor (TNFRSF)-interacting serine-threonine kinase 2) | 1 | 51.6 | 52.8 |
| Dnai1 (dynein axonemal intermediate chain 1) | 1 | 39.7 | 33.3 |
| Dnai1 (dynein axonemal intermediate chain 1) | 2 | 60.8 | 57.5 |
| Trip10 (thyroid hormone receptor interactor 10) | 1 | 54.6 | 61.4 |
| Trip10 (thyroid hormone receptor interactor 10) | 2 | 105 | 121 |
| Trip10 (thyroid hormone receptor interactor 10) | 3 | 89.5 | 89.9 |
| Rcan2 (regulator of calcineurin 2) | 1 | 70 | 54 |
| Rcan2 (regulator of calcineurin 2) | 2 | 81.8 | 71.2 |
| Or7d9 (olfactory receptor family 7 subfamily D member 9) | 1 | 42 | 43.1 |
| Or7d9 (olfactory receptor family 7 subfamily D member 9) | 2 | 64.2 | 52.5 |
| Or7d9 (olfactory receptor family 7 subfamily D member 9) | 3 | 38.3 | 91.7 |
| Olfm1 (olfactomedin 1) | 1 | 93.1 | 61.8 |
| Olfm1 (olfactomedin 1) | 2 | 77.2 | 91.9 |
| Olfm1 (olfactomedin 1) | 3 | 37.1 | 50.5 |
| Gtf3c4 (general transcription factor IIIC, polypeptide 4) | 1 | 39.8 | 57.1 |
| Gtf3c4 (general transcription factor IIIC, polypeptide 4) | 2 | 83.3 | 72.3 |
| Gtf3c4 (general transcription factor IIIC, polypeptide 4) | 3 | 70.5 | 63.3 |
| Dnaaf11 (dynein axonemal assembly factor 11) | 1 | 79.4 | 89.9 |
| Dnaaf11 (dynein axonemal assembly factor 11) | 2 | 152 (active) | 62 |
| Dnaaf11 (dynein axonemal assembly factor 11) | 3 | 63.1 | 62.1 |
| Xrn2 (5'-3' exoribonuclease 2) | 1 | 39.1 | 85.6 |
| Xrn2 (5'-3' exoribonuclease 2) | 2 | 122 (active) | 104 |
| Xrn2 (5'-3' exoribonuclease 2) | 3 | 54 | 33.7 |
| Zdhhc5 (zinc finger, DHHC domain containing 5) | 1 | 41.4 | 49.2 |
| Zdhhc5 (zinc finger, DHHC domain containing 5) | 2 | 67.4 | 71.1 |
| Zdhhc5 (zinc finger, DHHC domain containing 5) | 3 | 50.6 | 75.3 |
| Mapk14 (mitogen-activated protein kinase 14) | 1 | 103 | 86.8 |
| Pabpc2 (poly(A) binding protein, cytoplasmic 2) | 1 | 77 | 59.2 |
| Pabpc2 (poly(A) binding protein, cytoplasmic 2) | 2 | 83.4 | 62.7 |
| Pabpc2 (poly(A) binding protein, cytoplasmic 2) | 3 | 86.8 | 76.1 |
| Zmym1 (zinc finger, MYM domain containing 1) | 1 | 82.5 | 72.7 |
| Zmym1 (zinc finger, MYM domain containing 1) | 2 | 108 | 62.4 |
| Zmym1 (zinc finger, MYM domain containing 1) | 3 | 72.1 | 98.2 |
| Or55b10 (olfactory receptor family 55 subfamily B member 10) | 1 | 84.5 | 79.3 |
| Or55b10 (olfactory receptor family 55 subfamily B member 10) | 2 | 73 | 105 |
| Or55b10 (olfactory receptor family 55 subfamily B member 10) | 3 | 35.8 | 35.2 |
| Slc22a1 | 1 | 74.3 | 84.4 |
| Slc22a1 | 2 | 104 | 83.9 |
| Slc22a1 | 3 | 69.7 | 95.3 |
| Srrm4 (serine/arginine repetitive matrix 4) | 1 | 69.2 | 65.3 |
| Srrm4 (serine/arginine repetitive matrix 4) | 2 | 80.5 | 83.3 |
| Srrm4 (serine/arginine repetitive matrix 4) | 3 | 60.8 | 17.2 |
| Or2y1g (olfactory receptor family 2 subfamily Y member 1G) | 1 | 84.5 | 79.1 |
| Or2y1g (olfactory receptor family 2 subfamily Y member 1G) | 2 | 96.2 | 75.9 |
| Or2y1g (olfactory receptor family 2 subfamily Y member 1G) | 3 | 55.4 | 92.9 |
| Wfdc2 (WAP four-disulfide core domain 2) | 1 | 45.1 | 69.2 |
| Wfdc2 (WAP four-disulfide core domain 2) | 2 | 110 | 58.5 |
| Wfdc2 (WAP four-disulfide core domain 2) | 3 | 74.1 | 57.6 |
| E2f7 (E2F transcription factor 7) | 1 | 77.9 | 88.4 |
| E2f7 (E2F transcription factor 7) | 2 | 80.4 | 79.5 |
| Noc3l (NOC3 like DNA replication regulator) | 1 | 102 | 78.9 |
| Noc3l (NOC3 like DNA replication regulator) | 2 | 92.6 | 55.2 |
| Noc3l (NOC3 like DNA replication regulator) | 3 | 74.4 | 76 |
